From article PMC4707158 come the findings set out here.

Sequences of proteins named here, by UniProt entry; tags and fusion partners are left off.
UniProt Q9H4L4: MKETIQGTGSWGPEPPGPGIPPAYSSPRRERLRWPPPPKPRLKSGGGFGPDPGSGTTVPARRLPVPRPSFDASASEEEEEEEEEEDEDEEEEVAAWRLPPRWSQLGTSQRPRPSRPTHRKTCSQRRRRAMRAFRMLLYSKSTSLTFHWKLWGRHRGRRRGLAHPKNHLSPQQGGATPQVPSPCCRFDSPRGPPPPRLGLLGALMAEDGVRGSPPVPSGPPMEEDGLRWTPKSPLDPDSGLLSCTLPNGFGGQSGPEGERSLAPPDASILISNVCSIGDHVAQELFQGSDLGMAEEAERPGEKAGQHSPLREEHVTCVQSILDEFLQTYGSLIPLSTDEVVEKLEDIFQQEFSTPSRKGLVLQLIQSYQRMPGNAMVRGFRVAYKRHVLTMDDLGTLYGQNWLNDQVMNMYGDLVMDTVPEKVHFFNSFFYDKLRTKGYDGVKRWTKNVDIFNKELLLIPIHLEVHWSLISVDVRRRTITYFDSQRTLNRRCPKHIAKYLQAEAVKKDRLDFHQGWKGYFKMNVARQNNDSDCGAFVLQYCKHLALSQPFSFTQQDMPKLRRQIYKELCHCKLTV
UniProt Q92841: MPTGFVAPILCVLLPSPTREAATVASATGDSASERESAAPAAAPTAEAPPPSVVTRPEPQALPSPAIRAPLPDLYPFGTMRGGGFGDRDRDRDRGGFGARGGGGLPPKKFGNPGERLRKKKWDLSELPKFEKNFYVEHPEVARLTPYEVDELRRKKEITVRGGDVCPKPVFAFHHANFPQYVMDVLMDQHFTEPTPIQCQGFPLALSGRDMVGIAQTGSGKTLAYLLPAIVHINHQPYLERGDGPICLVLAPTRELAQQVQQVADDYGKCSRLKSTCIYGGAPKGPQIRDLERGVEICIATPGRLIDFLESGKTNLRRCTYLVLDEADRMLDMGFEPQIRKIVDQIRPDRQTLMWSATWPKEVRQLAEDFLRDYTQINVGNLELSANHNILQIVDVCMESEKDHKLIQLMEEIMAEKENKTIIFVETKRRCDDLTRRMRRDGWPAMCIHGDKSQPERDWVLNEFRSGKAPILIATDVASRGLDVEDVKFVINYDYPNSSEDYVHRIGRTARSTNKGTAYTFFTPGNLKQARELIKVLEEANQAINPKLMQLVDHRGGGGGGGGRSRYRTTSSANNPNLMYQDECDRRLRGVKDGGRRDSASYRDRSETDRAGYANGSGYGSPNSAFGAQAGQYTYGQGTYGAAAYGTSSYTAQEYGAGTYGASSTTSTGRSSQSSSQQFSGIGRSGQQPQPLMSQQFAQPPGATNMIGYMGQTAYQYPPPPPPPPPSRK
UniProt P13010: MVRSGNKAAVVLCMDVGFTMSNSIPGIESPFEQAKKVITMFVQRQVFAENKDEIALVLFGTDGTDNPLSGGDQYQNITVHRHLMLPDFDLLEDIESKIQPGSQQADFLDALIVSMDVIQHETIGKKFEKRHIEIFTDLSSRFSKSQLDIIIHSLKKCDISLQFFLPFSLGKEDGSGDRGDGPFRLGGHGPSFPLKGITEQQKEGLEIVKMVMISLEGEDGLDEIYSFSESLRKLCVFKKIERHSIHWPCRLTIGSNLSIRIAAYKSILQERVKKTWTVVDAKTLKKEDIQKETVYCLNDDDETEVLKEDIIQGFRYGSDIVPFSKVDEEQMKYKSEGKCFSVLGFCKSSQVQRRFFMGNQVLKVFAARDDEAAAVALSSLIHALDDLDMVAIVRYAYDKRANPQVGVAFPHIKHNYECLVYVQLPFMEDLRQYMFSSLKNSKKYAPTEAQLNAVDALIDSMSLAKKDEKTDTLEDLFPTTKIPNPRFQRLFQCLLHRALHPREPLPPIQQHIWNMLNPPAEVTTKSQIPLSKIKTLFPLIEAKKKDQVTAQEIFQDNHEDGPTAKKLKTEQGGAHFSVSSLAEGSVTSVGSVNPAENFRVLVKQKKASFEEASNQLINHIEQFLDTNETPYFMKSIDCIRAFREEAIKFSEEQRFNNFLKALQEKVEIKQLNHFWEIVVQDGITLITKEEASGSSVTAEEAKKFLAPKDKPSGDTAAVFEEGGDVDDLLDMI
UniProt P08047: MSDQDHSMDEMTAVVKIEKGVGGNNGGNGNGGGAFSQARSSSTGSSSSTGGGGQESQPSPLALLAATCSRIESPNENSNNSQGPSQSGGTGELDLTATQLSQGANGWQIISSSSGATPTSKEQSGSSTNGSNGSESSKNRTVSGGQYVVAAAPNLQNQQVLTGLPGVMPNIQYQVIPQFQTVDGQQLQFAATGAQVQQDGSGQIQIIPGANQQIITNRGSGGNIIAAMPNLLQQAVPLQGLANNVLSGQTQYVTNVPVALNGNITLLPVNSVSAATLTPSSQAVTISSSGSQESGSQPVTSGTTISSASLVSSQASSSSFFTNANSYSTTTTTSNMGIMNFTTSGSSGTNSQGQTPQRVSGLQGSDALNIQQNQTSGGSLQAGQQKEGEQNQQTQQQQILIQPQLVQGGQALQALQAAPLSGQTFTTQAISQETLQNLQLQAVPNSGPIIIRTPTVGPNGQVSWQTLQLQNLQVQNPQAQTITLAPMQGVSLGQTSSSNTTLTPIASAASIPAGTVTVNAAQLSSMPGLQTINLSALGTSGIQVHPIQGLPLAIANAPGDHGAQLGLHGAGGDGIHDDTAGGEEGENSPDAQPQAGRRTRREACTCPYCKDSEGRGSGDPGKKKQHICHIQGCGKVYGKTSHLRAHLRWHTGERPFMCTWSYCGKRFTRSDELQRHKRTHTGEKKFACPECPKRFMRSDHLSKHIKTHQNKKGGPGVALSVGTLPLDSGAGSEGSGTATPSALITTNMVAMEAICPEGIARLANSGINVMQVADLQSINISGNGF
UniProt Q05086: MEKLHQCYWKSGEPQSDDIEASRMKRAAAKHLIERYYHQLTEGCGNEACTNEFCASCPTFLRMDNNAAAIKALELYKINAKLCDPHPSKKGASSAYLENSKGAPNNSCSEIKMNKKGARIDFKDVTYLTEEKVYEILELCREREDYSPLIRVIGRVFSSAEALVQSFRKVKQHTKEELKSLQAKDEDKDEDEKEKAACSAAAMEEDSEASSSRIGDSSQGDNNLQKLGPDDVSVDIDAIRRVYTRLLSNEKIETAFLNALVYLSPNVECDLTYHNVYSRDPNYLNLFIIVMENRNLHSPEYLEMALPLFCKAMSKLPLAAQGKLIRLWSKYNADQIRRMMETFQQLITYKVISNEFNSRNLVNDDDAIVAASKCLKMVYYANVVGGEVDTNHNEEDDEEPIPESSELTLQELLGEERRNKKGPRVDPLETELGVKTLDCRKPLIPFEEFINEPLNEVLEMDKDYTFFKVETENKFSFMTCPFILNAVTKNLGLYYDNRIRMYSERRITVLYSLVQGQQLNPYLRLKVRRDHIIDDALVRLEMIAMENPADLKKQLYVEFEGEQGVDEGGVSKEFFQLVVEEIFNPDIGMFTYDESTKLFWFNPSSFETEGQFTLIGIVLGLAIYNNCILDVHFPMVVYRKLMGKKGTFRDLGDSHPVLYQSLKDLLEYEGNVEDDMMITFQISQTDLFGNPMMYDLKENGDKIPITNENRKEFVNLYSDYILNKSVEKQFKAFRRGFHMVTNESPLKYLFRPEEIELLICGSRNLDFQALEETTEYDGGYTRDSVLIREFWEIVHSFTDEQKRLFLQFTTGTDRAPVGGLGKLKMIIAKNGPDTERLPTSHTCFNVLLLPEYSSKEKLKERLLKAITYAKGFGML
UniProt Q14974: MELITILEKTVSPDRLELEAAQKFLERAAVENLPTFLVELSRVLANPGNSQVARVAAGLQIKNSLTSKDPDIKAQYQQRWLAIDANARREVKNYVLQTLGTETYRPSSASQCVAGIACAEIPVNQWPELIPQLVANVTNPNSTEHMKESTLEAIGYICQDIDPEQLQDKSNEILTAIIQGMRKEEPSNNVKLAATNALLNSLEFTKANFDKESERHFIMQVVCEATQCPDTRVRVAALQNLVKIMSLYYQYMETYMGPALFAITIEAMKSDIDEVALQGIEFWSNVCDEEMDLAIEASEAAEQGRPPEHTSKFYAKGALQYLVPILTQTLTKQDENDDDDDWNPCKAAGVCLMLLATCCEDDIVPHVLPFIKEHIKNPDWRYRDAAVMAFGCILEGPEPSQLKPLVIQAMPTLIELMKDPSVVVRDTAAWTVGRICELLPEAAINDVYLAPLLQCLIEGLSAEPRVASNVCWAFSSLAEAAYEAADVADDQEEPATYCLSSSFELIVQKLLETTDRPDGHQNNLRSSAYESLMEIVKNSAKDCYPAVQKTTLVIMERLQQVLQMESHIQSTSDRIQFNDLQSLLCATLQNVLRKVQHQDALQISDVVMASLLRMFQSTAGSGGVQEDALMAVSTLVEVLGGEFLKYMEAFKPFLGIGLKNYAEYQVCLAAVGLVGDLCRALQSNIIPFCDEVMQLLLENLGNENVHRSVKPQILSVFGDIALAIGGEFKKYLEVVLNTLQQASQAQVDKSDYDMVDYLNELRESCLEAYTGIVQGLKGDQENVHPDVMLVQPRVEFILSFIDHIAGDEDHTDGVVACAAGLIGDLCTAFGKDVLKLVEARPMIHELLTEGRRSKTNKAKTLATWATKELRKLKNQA
UniProt Q08945: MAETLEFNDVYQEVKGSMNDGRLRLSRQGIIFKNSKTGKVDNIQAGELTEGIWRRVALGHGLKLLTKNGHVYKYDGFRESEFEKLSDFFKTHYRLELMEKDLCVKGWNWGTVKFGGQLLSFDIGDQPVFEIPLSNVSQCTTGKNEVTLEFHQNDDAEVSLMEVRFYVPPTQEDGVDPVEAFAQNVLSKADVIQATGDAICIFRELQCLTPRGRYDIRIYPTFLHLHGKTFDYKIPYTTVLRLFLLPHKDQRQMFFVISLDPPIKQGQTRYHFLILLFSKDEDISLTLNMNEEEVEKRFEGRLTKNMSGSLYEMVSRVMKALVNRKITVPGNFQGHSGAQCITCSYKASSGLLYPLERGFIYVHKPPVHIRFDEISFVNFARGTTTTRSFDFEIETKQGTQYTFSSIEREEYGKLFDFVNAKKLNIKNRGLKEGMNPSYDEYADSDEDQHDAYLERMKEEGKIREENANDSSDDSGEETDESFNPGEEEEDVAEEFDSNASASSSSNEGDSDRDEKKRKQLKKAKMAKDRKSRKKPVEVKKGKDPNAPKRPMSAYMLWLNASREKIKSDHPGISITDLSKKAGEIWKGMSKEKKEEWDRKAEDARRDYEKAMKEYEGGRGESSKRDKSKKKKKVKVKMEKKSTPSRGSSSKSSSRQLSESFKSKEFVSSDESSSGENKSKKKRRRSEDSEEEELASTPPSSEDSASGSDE
UniProt Q9Y678: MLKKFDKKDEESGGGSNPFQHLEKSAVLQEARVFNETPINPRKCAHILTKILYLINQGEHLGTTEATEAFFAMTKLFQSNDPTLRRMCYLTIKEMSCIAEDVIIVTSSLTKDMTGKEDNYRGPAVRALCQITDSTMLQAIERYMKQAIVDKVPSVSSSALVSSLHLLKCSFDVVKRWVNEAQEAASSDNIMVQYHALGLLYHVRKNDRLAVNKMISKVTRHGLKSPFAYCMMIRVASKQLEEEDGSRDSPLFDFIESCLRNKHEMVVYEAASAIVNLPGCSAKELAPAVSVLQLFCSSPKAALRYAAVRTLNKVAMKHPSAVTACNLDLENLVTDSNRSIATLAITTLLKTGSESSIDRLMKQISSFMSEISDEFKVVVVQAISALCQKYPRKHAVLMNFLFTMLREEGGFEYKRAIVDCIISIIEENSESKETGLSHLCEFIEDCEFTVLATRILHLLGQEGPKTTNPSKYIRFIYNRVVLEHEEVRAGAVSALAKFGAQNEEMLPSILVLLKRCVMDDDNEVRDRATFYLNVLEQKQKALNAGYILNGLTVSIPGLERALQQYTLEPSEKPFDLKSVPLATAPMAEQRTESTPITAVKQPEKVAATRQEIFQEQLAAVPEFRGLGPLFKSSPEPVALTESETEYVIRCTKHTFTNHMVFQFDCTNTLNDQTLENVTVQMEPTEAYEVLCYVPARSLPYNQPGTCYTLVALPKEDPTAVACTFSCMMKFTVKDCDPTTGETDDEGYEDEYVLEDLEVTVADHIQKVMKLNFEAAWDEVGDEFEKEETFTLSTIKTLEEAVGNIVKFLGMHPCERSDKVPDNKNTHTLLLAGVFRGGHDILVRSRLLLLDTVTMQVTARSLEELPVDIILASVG

The target in the experiment is FLAG-SENP3 (UniProt Q9H4L4). Put plainly: affinity purification with mass spectrometry; 293T cells transfected with vector FLAG-pcDNA or FLAG-SENP3; co-IP with anti-FLAG antibody; gel silver stained, bands of approximately 100 kDa examined by MS; Table 1 lists the hits that were also increased in lysate of SENP3-transfected cells.

These are yes or no findings as the source states them, for the method shown. Binding seen in cells or lysates may run through a third protein. These calls come from enrichment with a bait or labelling near it, and not all partners need be listed.

Consider HSP90AA1 (from UniProt P07900 1-732), for which the binding result is recorded as “binds”.

In the case of HSP90B1 (from UniProt P14625 22-803), the binding entry is “binds”.

For the molecule DDX17 (from UniProt Q92841 1-729), the binding entry is given as “binds”.

With VCP (from UniProt P55072 1-806), the binding entry was “binds”.

In the case of PSMD2 (from UniProt Q13200 1-908), the binding entry is given as “binds”.

In the case of “XRCC5 (Ku80) (from UniProt P13010 1-732)”, the binding result is reported as “binds”.

Take “Specificity protein 1 (Sp1), endogenous (from UniProt P08047 1-785)”: the binding entry is “binds”.

HSP90AB1 (from UniProt P08238 1-724): the binding entry is given as “binds”.

As to NCAPH (from UniProt Q15003 1-741), the binding result is given as “binds”.

In the case of UBE3A (from UniProt Q05086 1-875), the binding entry was “binds”.

In the case of KPNB1 (from UniProt Q14974 1-876), the binding result is on record as “binds”.

NCBP1 (from UniProt Q09161 1-790): the binding entry is “binds”.

Regarding SSRP1 (from UniProt Q08945 1-709), the binding entry is “binds”.

As to TELO2 (from UniProt Q9Y4R8 1-837), the binding entry is on record as “binds”.

CDC5L (from UniProt Q99459 1-802): the binding result is recorded as “binds”.

For PDCD6IP (from UniProt Q8WUM4 1-868), the binding entry is listed as “binds”.

Turning to DHX15 (from UniProt O43143 1-795), the binding result is “binds”.

On to SEC63 (from UniProt Q9UGP8 1-760), for which the binding result is reported as “binds”.

TRIM28 (from UniProt Q13263 1-835): the binding result is recorded as “binds”.

On to COPG1 (from UniProt Q9Y678 1-874), for which the binding entry was “binds”.

As to AP1G1 (from UniProt O43747 1-822), the binding result is given as “binds”.

B1: MATR3 (protein, UniProt P43243 1-847)
chain: MSKSFQQSSLSRDSQGHGRDLSAAGIGLLAAATQSLSMPASLGRMNQGTARLASLMNLGMSSSLNQQGAHSALSSASTSSHNLQSIFNIGSRGPLPLSSQHRGDADQASNILASFGLSARDLDELSRYPEDKITPENLPQILLQLKRRRTEEGPTLSYGRDGRSATREPPYRVPRDDWEEKRHFRRDSFDDRGPSLNPVLDYDHGSRSQESGYYDRMDYEDDRLRDGERCRDDSFFGETSHNYHKFDSEYERMGRGPGPLQERSLFEKKRGAPPSSNIEDFHGLLPKGYPHLCSICDLPVHSNKEWSQHINGASHSRRCQLLLEIYPEWNPDNDTGHTMGDPFMLQQSTNPAPGILGPPPPSFHLGGPAVGPRGNLGAGNGNLQGPRHMQKGRVETSRVVHIMDFQRGKNLRYQLLQLVEPFGVISNHLILNKINEAFIEMATTEDAQAAVDYYTTTPALVFGKPVRVHLSQKYKRIKKPEGKPDQKFDQKQELGRVIHLSNLPHSGYSDSAVLKLAEPYGKIKNYILMRMKSQAFIEMETREDAMAMVDHCLKKALWFQGRCVKVDLSEKYKKLVLRIPNRGIDLLKKDKSRKRSYSPDGKESPSDKKSKTDGSQKTESSTEGKEQEEKSGEDGEKDTKDDQTEQEPNMLLESEDELLVDEEEAAALLESGSSVGDETDLANLGDVASDGKKEPSDKAVKKDGSASAAAKKKLKKVDKIEELDQENEAALENGIKNEENTEPGAESSENADDPNKDTSENADGQSDENKDDYTIPDEYRIGPYQPNVPVGIDYVIPKTGFYCKLCSLFYTNEEVAKNTHCSSLPHYQKLKKFLNKLAEERRQKKET
On to B1, for which the binding result is listed as “binds”.

B2: MAD1L1 (protein, UniProt Q9Y6D9 1-718)
chain: MEDLGENTMVLSTLRSLNNFISQRVEGGSGLDISTSAPGSLQMQYQQSMQLEERAEQIRSKSHLIQVEREKMQMELSHKRARVELERAASTSARNYEREVDRNQELLTRIRQLQEREAGAEEKMQEQLERNRQCQQNLDAASKRLREKEDSLAQAGETINALKGRISELQWSVMDQEMRVKRLESEKQELQEQLDLQHKKCQEANQKIQELQASQEARADHEQQIKDLEQKLSLQEQDAAIVKNMKSELVRLPRLERELKQLREESAHLREMRETNGLLQEELEGLQRKLGRQEKMQETLVGLELENERLLAKLQSWERLDQTMGLSIRTPEDLSRFVVELQQRELALKDKNSAVTSSARGLEKARQQLQEELRQVSGQLLEERKKRETHEALARRLQKRVLLLTKERDGMRAILGSYDSELTPAEYSPQLTRRMREAEDMVQKVHSHSAEMEAQLSQALEELGGQKQRADMLEMELKMLKSQSSSAEQSFLFSREEADTLRLKVEELEGERSRLEEEKRMLEAQLERRALQGDYDQSRTKVLHMSLNPTSVARQRLREDHSQLQAECERLRGLLRAMERGGTVPADLEAAAASLPSSKEVAELKKQVESAELKNQRLKEVFQTKIQEFRKACYTLTGYQIDITTENQYRLTSLYAEHPGDCLIFKATSPSGSKMQLLETEFSHTVGELIEVHLRRQDSIPAFLSSLTLELFSRQTVA
For the molecule B2, the binding entry is “binds”.

B3: MCM3 (protein, UniProt P25205 1-808)
chain: MAGTVVLDDVELREAQRDYLDFLDDEEDQGIYQSKVRELISDNQYRLIVNVNDLRRKNEKRANRLLNNAFEELVAFQRALKDFVASIDATYAKQYEEFYVGLEGSFGSKHVSPRTLTSCFLSCVVCVEGIVTKCSLVRPKVVRSVHYCPATKKTIERRYSDLTTLVAFPSSSVYPTKDEENNPLETEYGLSVYKDHQTITIQEMPEKAPAGQLPRSVDVILDDDLVDKAKPGDRVQVVGTYRCLPGKKGGYTSGTFRTVLIACNVKQMSKDAQPSFSAEDIAKIKKFSKTRSKDIFDQLAKSLAPSIHGHDYVKKAILCLLLGGVERDLENGSHIRGDINILLIGDPSVAKSQLLRYVLCTAPRAIPTTGRGSSGVGLTAAVTTDQETGERRLEAGAMVLADRGVVCIDEFDKMSDMDRTAIHEVMEQGRVTIAKAGIHARLNARCSVLAAANPVYGRYDQYKTPMENIGLQDSLLSRFDLLFIMLDQMDPEQDREISDHVLRMHRYRAPGEQDGDAMPLGSAVDILATDDPNFSQEDQQDTQIYEKHDNLLHGTKKKKEKMVSAAFMKKYIHVAKIIKPVLTQESATYIAEEYSRLRSQDSMSSDTARTSPVTARTLETLIRLATAHAKARMSKTVDLQDAEEAVELVQYAYFKKVLEKEKKRKKRSEDESETEDEEEKSQEDQEQKRKRRKTRQPDAKDGDSYDPYDFSDTEEEMPQVHTPKTADSQETKESQKVELSESRLKAFKVALLDVFREAHAQSIGMNRLTESINRDSEEPFSSVEIQAALSKMQDDNQVMVSEGIIFLI
Consider B3, for which the binding result is given as “binds”.

B4: DDX27 (protein, UniProt Q96GQ7 1-765)
chain: MLADLGLIGTIGEDDEVPVEPESDSGDEEEEGPIVLGRRQKALGKNRSADFNPDFVFTEKEGTYDGSWALADVMSQLKKKRAATTLDEKIEKVRKKRKTEDKEAKSGKLEKEKEAKEGSEPKEQEDLQENDEEGSEDEASETDYSSADENILTKADTLKVKDRKKKKKKGQEAGGFFEDASQYDENLSFQDMNLSRPLLKAITAMGFKQPTPIQKACIPVGLLGKDICACAATGTGKTAAFALPVLERLIYKPRQAPVTRVLVLVPTRELGIQVHSVTRQLAQFCNITTCLAVGGLDVKSQEAALRAAPDILIATPGRLIDHLHNCPSFHLSSIEVLILDEADRMLDEYFEEQMKEIIRMCSHHRQTMLFSATMTDEVKDLASVSLKNPVRIFVNSNTDVAPFLRQEFIRIRPNREGDREAIVAALLTRTFTDHVMLFTQTKKQAHRMHILLGLMGLQVGELHGNLSQTQRLEALRRFKDEQIDILVATDVAARGLDIEGVKTVINFTMPNTIKHYVHRVGRTARAGRAGRSVSLVGEDERKMLKEIVKAAKAPVKARILPQDVILKFRDKIEKMEKDVYAVLQLEAEEKEMQQSEAQINTAKRLLEKGKEAVVQEPERSWFQTKEERKKEKIAKALQEFDLALRGKKKRKKFMKDAKKKGEMTAEERSQFEILKAQMFAERLAKRNRRAKRARAMPEEEPVRGPAKKQKQGKKSVFDEELTNTSKKALKQYRAGPSFEERKQLGLPHQRRGGNFKSKSRYKRRK
B4: the binding entry is recorded as “binds”.

B5: ZW10 (protein, UniProt O43264 1-779)
chain: MASFVTEVLAHSGRLEKEDLGTRISRLTRRVEEIKGEVCNMISKKYSEFLPSMQSAQGLITQVDKLSEDIDLLKSRIESEVRRDLHVSTGEFTDLKQQLERDSVVLSLLKQLQEFSTAIEEYNCALTEKKYVTGAQRLEEAQKCLKLLKSRKCFDLKILKSLSMELTIQKQNILYHLGEEWQKLIVWKFPPSKDTSSLESYLQTELHLYTEQSHKEEKTPMPPISSVLLAFSVLGELHSKLKSFGQMLLKYILRPLASCPSLHAVIESQPNIVIIRFESIMTNLEYPSPSEVFTKIRLVLEVLQKQLLDLPLDTDLENEKTSTVPLAEMLGDMIWEDLSECLIKNCLVYSIPTNSSKLQQYEEIIQSTEEFENALKEMRFLKGDTTDLLKYARNINSHFANKKCQDVIVAARNLMTSEIHNTVKIIPDSKINVPELPTPDEDNKLEVQKVSNTQYHEVMNLEPENTLDQHSFSLPTCRISESVKKLMELAYQTLLEATTSSDQCAVQLFYSVRNIFHLFHDVVPTYHKENLQKLPQLAAIHHNNCMYIAHHLLTLGHQFRLRLAPILCDGTATFVDLVPGFRRLGTECFLAQMRAQKGELLERLSSARNFSNMDDEENYSAASKAVRQVLHQLKRLGIVWQDVLPVNIYCKAMGTLLNTAISEVIGKITALEDISTEDGDRLYSLCKTVMDEGPQVFAPLSEESKNKKYQEEVPVYVPKWMPFKELMMMLQASLQEIGDRWADGKGPLAAAFSSSEVKALIRALFQNTERRAAALAKIK
With B5, the binding result is listed as “binds”.

B6: XAB2 (protein, UniProt Q9HCS7 1-855)
chain: MVVMARLSRPERPDLVFEEEDLPYEEEIMRNQFSVKCWLRYIEFKQGAPKPRLNQLYERALKLLPCSYKLWYRYLKARRAQVKHRCVTDPAYEDVNNCHERAFVFMHKMPRLWLDYCQFLMDQGRVTHTRRTFDRALRALPITQHSRIWPLYLRFLRSHPLPETAVRGYRRFLKLSPESAEEYIEYLKSSDRLDEAAQRLATVVNDERFVSKAGKSNYQLWHELCDLISQNPDKVQSLNVDAIIRGGLTRFTDQLGKLWCSLADYYIRSGHFEKARDVYEEAIRTVMTVRDFTQVFDSYAQFEESMIAAKMETASELGREEEDDVDLELRLARFEQLISRRPLLLNSVLLRQNPHHVHEWHKRVALHQGRPREIINTYTEAVQTVDPFKATGKPHTLWVAFAKFYEDNGQLDDARVILEKATKVNFKQVDDLASVWCQCGELELRHENYDEALRLLRKATALPARRAEYFDGSEPVQNRVYKSLKVWSMLADLEESLGTFQSTKAVYDRILDLRIATPQIVINYAMFLEEHKYFEESFKAYERGISLFKWPNVSDIWSTYLTKFIARYGGRKLERARDLFEQALDGCPPKYAKTLYLLYAQLEEEWGLARHAMAVYERATRAVEPAQQYDMFNIYIKRAAEIYGVTHTRGIYQKAIEVLSDEHAREMCLRFADMECKLGEIDRARAIYSFCSQICDPRTTGAFWQTWKDFEVRHGNEDTIKEMLRIRRSVQATYNTQVNFMASQMLKVSGSATGTVSDLAPGQSGMDDMKLLEQRAEQLAAEAERDQPLRAQSKILFVRSDASREELAELAQQVNPEEIQLGEDEDEDEMDLEPNEVRLEQQSVPAAVFGSLKED
For the molecule B6, the binding result is “binds”.
